Data: article PMC7295576
No constants are given. Whether binding was seen depends on the method and setting. In cells and extracts the contact can be indirect. For some of these results: Binding can be weak; no strength is given. Sequences can lack the tags named with a protein.

B1: HA-tagged wild-type CCDC137 (protein, UniProt Q6PK04 1-289)
chain: MAGAGRGAAVSRVQAGPGSPRRARGRQQVQPLGKQRPAPWPGLRSKEKKKVNCKPKNQDEQEIPFRLREIMRSRQEMKNPISNKKRKKAAQVTFRKTLEKEAKGEEPDIAVPKFKQRKGESDGAYIHRMQQEAQHVLFLSKNQAIRQPEVQAAPKEKSEQKKAKKAFQKRRLDKVRRKKEEKAADRLEQELLRDTVKFGEVVLQPPELTARPQRSVSKDQPGRRSQMLRMLLSPGGVSQPLTASLARQRIVEEERERAVQAYRALKQRQQQLHGERPHLTSRKKPEPQL
B2: V5-tagged CCDC137 (protein, UniProt Q6PK04 1-289)
chain: B1 chain
B3: V5-tagged ribosomal RNA processing protein 1 (RRP1) (protein, UniProt P56182 1-461)
chain: MVSRVQLPPEIQLAQRLAGNEQVTRDRAVRKLRKYIVARTQRAAGGFTHDELLKVWKGLFYCMWMQDKPLLQEELGRTISQLVHAFQTTEAQHLFLQAFWQTMNREWTGIDRLRLDKFYMLMRMVLNESLKVLKMQGWEERQIEELLELLMTEILHPSSQAPNGVKSHFIEIFLEELTKVGAEELTADQNLKFIDPFCRIAARTKDSLVLNNITRGIFETIVEQAPLAIEDLLNELDTQDEEVASDSDESSEGGERGDALSQKRSEKPPAGSICRAEPEAGEEQAGDDRDSGGPVLQFDYEAVANRLFEMASRQSTPSQNRKRLYKVIRKLQDLAGGIFPEDEIPEKACRRLLEGRRQKKTKKQKRLLRLQQERGKGEKEPPSPGMERKRSRRRGVGADPEARAEAGEQPGTAERALLRDQPRGRGQRGARQRRRTPRPLTSARAKAANVQEPEKKKKRRE

What was measured:
[1] = biological target: GST-Vpr WT (glutathione S-transferase fused to HIV-1 NL4-3 Vpr) (HIV-1 NL4-3); experiment: pull-down; GST or GST-Vpr co-expressed with HA-tagged CCDC137 in 293T cells, MG132 for 4 hr; lysis in 50 mM Tris pH 7.4, 150 mM NaCl, 5 mM EDTA, 5% glycerol, 1% Triton X-100; glutathione sepharose 4 hr at 4°C; Western blot
[2] = biological target: GST-Vpr mutant Q65R (HIV-1 NL4-3); experiment: as above
[3] = biological target: HA-tagged Vpr (HIV-1 NL4-3) (HIV-1 NL4-3); experiment: co-IP; HA-Vpr and V5-tagged proteins co-expressed in 293T cells, 10 µM MG132 for 4 hr; lysis in 50 mM Tris pH 7.4, 150 mM NaCl, 0.5 mM EDTA, 1% digitonin; anti-HA monoclonal antibody and Protein G Sepharose 3 hr at 4°C; Western blot

Binder | binding [1] | binding [2] | binding [3]
B1 | binds | no binding | 
B2 |  |  | binds
B3 |  |  | no binding
